Test results from patent US11717499B2 (priority 2011, dated 2023).

Test system: inflammatory cell infiltration in placenta
Details: LPS-treated mouse rescued with 1.56 mg/kg DMA; representative section

CC(=O)N(C)C [DMA, N,N-dimethylacetamide]
Inflammatory cells in placental labyrinth section: Inflammatory cells are scant
